Measurements reported in PubChem BioAssay AID1259308 (NCATS, 2017).

Screen: 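Candidate targets for better recombinant protein yield in mammalian cells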 (primary screen)
Cell system: human HEK293 embryonic kidney cells stably expressing firefly luciferase (HEK-CMV-Luc2-Hygro)
Reagents: single siRNA against human genes, 0.8 pmol siRNA per well
Time to read-out: 72 h
Measured: 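Reporter luminescence and viable-cell signal on separate replicate plates, given as percent of non-targeting control and median/MAD z-scores, plus per-cell luciferase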
Direction: total luciferase, z-score and total luciferase, % of control: higher = more reporter protein produced; luciferase per cell, z-score: higher = more reporter output per viable cell; viable cells, % of control: higher = more viable cells
Hit rule: 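An siRNA counts as active if its total luciferase robust z-score exceeds 3; genes with two or more such siRNAs out of three were retested with fresh siRNAs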
Meaning of the calls: active = raised luciferase; inactive = no rise
This is a random part of about 59,000 deposited reagents. About 1,510 of them (2.6%) were called active. 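Calls use total luciferase alone and ignore viability, so some active siRNAs may act by altering cell number.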 The numbers tell different reagents against one gene apart.

| gene knocked down | reagent no. | total luciferase, z-score | total luciferase, % of control | luciferase per cell, z-score | viable cells, % of control | Outcome |
| --- | --- | --- | --- | --- | --- | --- |
| NUTF2 | 1 | -0.788 | 66.2 | -0.205 | 78.1 | inactive |
| NUTF2 | 2 | -0.655 | 68.9 | 0.805 | 62.2 | inactive |
| NUTF2 | 3 | 0.234 | 86.5 | 0.158 | 92.8 | inactive |
| GALNT9 | 1 | -0.811 | 65.8 | 0.08 | 71.9 | inactive |
| GALNT9 | 2 | -0.55 | 70.9 | -0.618 | 93.3 | inactive |
| GALNT9 | 3 | 0.677 | 95.4 | 0.571 | 91.7 | inactive |
| INHBC | 1 | -0.63 | 69.4 | 0.196 | 73.6 | inactive |
| INHBC | 2 | -0.308 | 75.8 | 0.244 | 79.4 | inactive |
| INHBC | 3 | -1.03 | 61.4 | -1.12 | 92.1 | inactive |
| GUCY1B1 | 1 | -0.659 | 68.8 | 0.229 | 72.4 | inactive |
| GUCY1B1 | 2 | -0.387 | 74.2 | -0.857 | 104 | inactive |
| GUCY1B1 | 3 | -0.234 | 77.2 | -0.332 | 94.2 | inactive |
| BMP4 | 1 | 0.0706 | 83.3 | 0.31 | 85.8 | inactive |
| BMP4 | 2 | -0.0874 | 80.1 | -0.114 | 92.3 | inactive |
| BMP4 | 3 | 1.05 | 103 | -0.0655 | 117 | inactive |
| NGRN | 1 | -0.877 | 64.4 | -0.649 | 85.4 | inactive |
| NGRN | 2 | 0.525 | 92.3 | 1.39 | 71.6 | inactive |
| NGRN | 3 | -0.0166 | 81.6 | 0.0334 | 90.3 | inactive |
| NRN1L | 1 | 0.574 | 93.3 | 1.13 | 77.3 | inactive |
| NRN1L | 2 | 1.15 | 105 | 0.186 | 111 | inactive |
| NRN1L | 3 | -1.02 | 61.6 | -1.4 | 99.4 | inactive |
| INHBB | 1 | -2.12 | 39.7 | -2.56 | 87.1 | inactive |
| INHBB | 2 | -0.0269 | 81.4 | 0.148 | 87.4 | inactive |
| INHBB | 3 | 1.81 | 118 | 1.7 | 84.3 | inactive |
| RALA | 1 | -0.0197 | 81.5 | -0.766 | 111 | inactive |
| RALA | 2 | 2.1 | 124 | 1.63 | 89.9 | inactive |
| RALA | 3 | -0.798 | 66 | -0.895 | 93.4 | inactive |
| TCL1A | 1 | -0.735 | 67.3 | -1.17 | 102 | inactive |
| TCL1A | 2 | -0.45 | 72.9 | -0.0488 | 82.6 | inactive |
| TCL1A | 3 | -1.63 | 49.4 | -1.39 | 79.7 | inactive |
| LEMD2 | 1 | -0.435 | 73.2 | -0.593 | 95.7 | inactive |
| LEMD2 | 2 | -0.639 | 69.2 | -0.201 | 81.5 | inactive |
| LEMD2 | 3 | 0.349 | 88.8 | 0.597 | 84.8 | inactive |
| SHTN1 | 1 | 0.205 | 86 | 0.192 | 91.3 | inactive |
| SHTN1 | 2 | -0.106 | 79.8 | -0.613 | 105 | inactive |
| SHTN1 | 3 | 0.359 | 89 | -0.595 | 116 | inactive |
| HVCN1 | 1 | -1.29 | 56.3 | -0.377 | 69.5 | inactive |
| HVCN1 | 2 | -0.223 | 77.5 | 0.281 | 80.4 | inactive |
| HVCN1 | 3 | -0.228 | 77.4 | -0.295 | 93.4 | inactive |
| GPM6B | 1 | 1.09 | 104 | 0.657 | 97.4 | inactive |
| GPM6B | 2 | -0.03 | 81.3 | 0.573 | 78.1 | inactive |
| GPM6B | 3 | 0.203 | 85.9 | 0.17 | 91.8 | inactive |

Continued; the last 7 above are carried over.
| gene knocked down | reagent no. | total luciferase, z-score | total luciferase, % of control | luciferase per cell, z-score | viable cells, % of control | Outcome |
| --- | --- | --- | --- | --- | --- | --- |
| SHTN1 | 3 | 0.359 | 89 | -0.595 | 116 | inactive |
| HVCN1 | 1 | -1.29 | 56.3 | -0.377 | 69.5 | inactive |
| HVCN1 | 2 | -0.223 | 77.5 | 0.281 | 80.4 | inactive |
| HVCN1 | 3 | -0.228 | 77.4 | -0.295 | 93.4 | inactive |
| GPM6B | 1 | 1.09 | 104 | 0.657 | 97.4 | inactive |
| GPM6B | 2 | -0.03 | 81.3 | 0.573 | 78.1 | inactive |
| GPM6B | 3 | 0.203 | 85.9 | 0.17 | 91.8 | inactive |
| SNTG2 | 1 | -0.404 | 73.9 | -1.08 | 110 | inactive |
| SNTG2 | 2 | 0.217 | 86.2 | 0.989 | 74.2 | inactive |
| SNTG2 | 3 | -0.522 | 71.5 | 1.47 | 54.2 | inactive |
| AP2S1 | 1 | 2.07 | 123 | 2.56 | 70.2 | inactive |
| AP2S1 | 2 | -0.237 | 77.2 | -0.285 | 93 | inactive |
| AP2S1 | 3 | 0.368 | 89.2 | 0.82 | 80.3 | inactive |
| RPL6P16 | 1 | 0.524 | 92.3 | 0.0134 | 103 | inactive |
| RPL6P16 | 2 | -0.245 | 77 | -0.302 | 93.2 | inactive |
| RPL6P16 | 3 | 1.05 | 103 | 0.468 | 101 | inactive |
| CYP4Z1 | 1 | 0.792 | 97.6 | 1.26 | 78.4 | inactive |
| CYP4Z1 | 2 | -0.768 | 66.6 | 1.33 | 52.4 | inactive |
| CYP4Z1 | 3 | 2.77 | 137 | 1.64 | 99.4 | inactive |
| PRSS22 | 1 | 0.411 | 90.1 | 0.255 | 94.1 | inactive |
| PRSS22 | 2 | 0.795 | 97.7 | 1.35 | 76.4 | inactive |
| PRSS22 | 3 | -0.5 | 72 | -0.622 | 94.7 | inactive |
| ISLR2 | 1 | -2.98 | 22.7 | -3.74 | 67.8 | inactive |
| ISLR2 | 2 | -2.58 | 30.6 | -2.98 | 74.9 | inactive |
| ISLR2 | 3 | 0.439 | 90.6 | 0.0493 | 100 | inactive |
| ALPP | 1 | -0.0575 | 80.7 | -0.0316 | 91 | inactive |
| ALPP | 2 | -0.464 | 72.6 | -0.341 | 88.8 | inactive |
| ALPP | 3 | 0.202 | 85.9 | -0.0456 | 97.2 | inactive |
| GARRE1 | 1 | 1.71 | 116 | 1.14 | 95.8 | inactive |
| GARRE1 | 2 | -0.0729 | 80.4 | -0.553 | 104 | inactive |
| GARRE1 | 3 | 0.189 | 85.7 | -0.8 | 118 | inactive |
| PGLS | 1 | -0.411 | 73.7 | 0.359 | 74.9 | inactive |
| PGLS | 2 | -0.66 | 68.8 | -0.774 | 94.2 | inactive |
| PGLS | 3 | 0.814 | 98.1 | 1.1 | 82 | inactive |
| NUP98 | 1 | -0.868 | 64.6 | 0.184 | 68.8 | inactive |
| NUP98 | 2 | -0.193 | 78.1 | 0.412 | 78.3 | inactive |
| NUP98 | 3 | -0.356 | 74.8 | 0.251 | 78.2 | inactive |
| RTN4RL1 | 1 | -1.55 | 51.1 | -1.89 | 93.8 | inactive |
| RTN4RL1 | 2 | -0.681 | 68.3 | -0.548 | 88.2 | inactive |
| RTN4RL1 | 3 | -0.699 | 68 | -0.411 | 84.7 | inactive |
